Mtb cholesterol medium: 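Whole-cell growth test on Mycobacterium tuberculosis, read after 4 days in a medium based on cholesterol and the lipid DPPC; the read-out is not stated. Concentration: 50 µM. The record gives no direction; compounds that gave an IC50 in retests scored well above the rest, so higher reads as more growth inhibition. Size under these conditions: about 69,000 compounds, about 370 of them at 50% or above in at least one test.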
Mtb glucose medium: 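Whole-cell growth test on Mycobacterium tuberculosis, read after 3 days in glucose-containing 7H9 medium; the read-out is not stated. Compounds at 50 µM. Direction is inferred from retests: higher values go with more growth inhibition. About 69,000 compounds were tested under these conditions; 1.1% (about 760) showed 50% or more at least once.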

The filed quantity is “Percent Effect” (%).
How 0% and 100% were set is not recorded. Most values in the screen are low, and negative values occur.
This is an unselected part of the compounds tested.
Two or more numbers in one place are separate tests of the same structure; such repeats can differ widely.

SMILES | Mtb cholesterol medium | Mtb glucose medium
COCCOc1ccc(F)cc1NCc1nc2ccccc2n1C | 10.42 | 11.64
Cc1cc(N2CCCN(C(C(=O)O)c3cccc(C)c3F)CC2)ccn1 (stereo unspecified) | -20.05 | -8.013
COc1ccc(Cl)cc1NCC(=O)NCc1cccnc1OC | -3.659 | 8.765 & 3.22
[H][C@]12CCN(C(=O)c3cnoc3C)[C@@]1([H])CCC(=O)N2CC1CC1 | 13.4 | -4.499
CCc1nc(CC(=O)N2CCCCC2Cn2cccn2)cs1 (stereo unspecified) | 13.49 | 30.78
COc1cccc(CN2CCc3nc(C(N)=O)sc3CC2)c1.O=C(O)C(F)(F)F | -24.52 | -8.62 & 4.923
Cc1cc(C)n(CC2CCCCN2CC(=O)N(C)Cc2ccco2)n1 (stereo unspecified) | -10.8 | -8.337
c1ccc(COCC2CN(Cc3ccsc3)Cc3nccn3C2)nc1 (stereo unspecified) | -11.06 | -1.004
Cc1c(CN2CCCC(O)C2)[nH]c2ccc(F)cc12 (stereo unspecified) | 10.54 | 4.516
CN(CC(=O)N1CCCC1)Cc1nc2c(cnn2C)c(=O)[nH]1 | -6.299 | -24.77
CC(=O)N1CCN(c2cc(CCNC(=O)C(C)C)nc(C3CC3)n2)CC1 | 15.65 | 17.03
Cc1ccc(CN(CCN(C)C)C(=O)Nc2cc(C(N)=O)ccc2C)s1 | -28.72 & -10.99 | -33.82
N#Cc1ccsc1NC(=O)CN1CCn2c(nnc2C2CC2)C1 | -7.765 | 52.39
Cc1nc(C2CCN(C(C)C)CC2)sc1Br | 4.22 | 12.88
CC(Nc1ncnc2c1NC(=O)CN2)c1ccc2c(c1)OCO2 (stereo unspecified) | 9.34 | 17.54
Cc1cc(NCCNc2ncccc2C)n2nc(C)cc2n1 | 15.62 | 35.73
c1ccc(Cc2noc(-c3ccc(NCC4COCCO4)nc3)n2)cc1 (stereo unspecified) | 4.293 | 34.76
Cc1nc(NCC2CC2)nc2c1COCC21CCN(C(=O)C(C)(C)C)C1 (stereo unspecified) | 14.6 & -3.552 | -19.37
Cc1n[nH]c(C2CN(C(=O)c3ccc4c(c3)CCCC4)CCO2)n1 (stereo unspecified) | -4.331 | 8.267
O=C(CCN1CCCC1C1CCCCC1)N1CCc2sccc2C1 (stereo unspecified) | -1.536 | 28.37
CS(=O)(=O)NCCCN1CCCCC1c1cc2ccccc2[nH]1 (stereo unspecified) | 29.2 | 23.09
Cc1noc(CN2CC=C(c3c[nH]c4ncccc34)CC2)n1 | -15.35 | -16.25
Cc1n[nH]c(C2CN(C(=O)c3ccoc3C)CCO2)n1 (stereo unspecified) | -4.898 | -2.28
Cc1c(C(=O)NCC(F)(F)F)nnn1-c1ccccc1Cl | 25.48 | 18.28
COCCN(Cc1cnn(C)c1)C(=O)C1CCC(=O)N(C2CCCC2)C1 (stereo unspecified) | -10.15 | -3.872 & -31.78
CCCOc1ccccc1C(N)CC(C)C (stereo unspecified) | 13.73 | 1.096 & -1.033
O=C(CN1CCCS1(=O)=O)Nc1ccc(OC2CCCC2)c(Cl)c1 | -1.295 | -2.954
O=C(Nc1cnc(Oc2ccccc2)nc1)C1CC1 | 32.05 | 36.47 & 8.642
CN1C[C@@H](C(=O)NC2CCCC2)[C@@]2(COc3ccc(F)cc3C2=O)C1 | -5.812 & -5.873 | -1.619
COc1cc(OC)cc(-c2noc(CC(N)c3ccccc3)n2)c1 (stereo unspecified) | 11.05 | 14.5 & 3.972
COCC(=O)N1CCC2(CC1)CC(c1cnn(C)c1)C(=O)N2 (stereo unspecified) | -9.041 & 8.786 | -7.99 & -2.31
NC1CCCN(Cc2cccc(C(F)(F)F)c2)C1=O (stereo unspecified) | 4.099 | 5.859
CS(=O)(=O)Nc1ccc(CNC(=O)CN2CCc3ccccc32)cc1 | -0.7861 | 1.76 & 5.472
[H][C@@]12CS(=O)(=O)C[C@]1([H])N(C(=O)c1cnc(C)nc1)CCN2CCC | 13.46 | -13.41
Fc1ccc(CNCC2OCCc3cn(CC4CC4)nc32)cc1.O=C(O)C(F)(F)F.O=C(O)C(F)(F)F (stereo unspecified) | -4.913 | -13.3
O=C(O)C(F)(F)F.[H][C@@]12CN(C(=O)N3CCCC3)C[C@]1([H])OCCN2Cc1c(C)noc1C | -14.92 | 10.96
CSCc1cccc(S(=O)(=O)NCCCN2CCOCC2)c1 | -25.39 | -28.24
CC(O)CN1CCN(C(=O)c2cccn2Cc2ccncc2)CC1 (stereo unspecified) | -2.481 | -9.043
Cn1cc(CCCNS(=O)(=O)N2CCCC2c2ccco2)cn1 (stereo unspecified) | 5.019 & -1.802 | 6.854 & 7.422
O=C(NCC1CC1)C1CN(Cc2ccncc2)Cc2ccnn2C1.O=C(O)C(F)(F)F.O=C(O)C(F)(F)F.O=C(O)C(F)(F)F (stereo unspecified) | 3.828 | 2.159
CC(C)C(=O)NC(Cc1cc(N(C)C)nc(C2CC2)n1)c1ccccc1 (stereo unspecified) | 5.908 & 3.891 | -4.209
Cc1cc(NC(=O)NCCc2cscn2)nn1C | 8.593 | 25.82
Cc1nc(C2(NC(=O)NCc3cc(C#N)ccc3F)CCCC2)no1 | -4.207 | 6.934
CC(=O)N1CC[C@@H](N2CCN(C)CC2)[C@@H]1Cc1ccccc1 | -6.369 | -3.077 & -9.465
NC(=O)CN(C(=O)c1c[nH]c2ncccc12)C1CCCC1 | -14.3 | 0.5456
Cc1nnc(CN(C)CC2CCCCC2)o1 | 29.16 | 44.01
O=C(COCC1CC1)N1CCN(C(=O)Cc2ccccn2)CC1 | -5.799 | 11.09
Cc1ccnc(C2CCN(C(=O)c3cnn(C)c3)CC2)n1 | -26.46 & -0.4976 | -16.43
CCCN1CCC(Cc2noc(-c3[nH]cnc3C)n2)CC1 | 0.3653 & -23.74 | -18.95
Cc1[nH]ncc1C(C)NCc1cccnc1 (stereo unspecified) | -4.982 | 29.45
Fc1ccc2c(c1)CCC2NCc1ccc(N2CCOCC2)cc1 (stereo unspecified) | -12.07 | -23.37
COc1ccccc1CC(=O)N1CCN(Cc2ccco2)C[C@@H]1C | -0.9309 & -19.12 | -9.065
CC(NC(=O)NCc1cscn1)c1ccc(N2CCOCC2)cc1 (stereo unspecified) | -28.09 | 0.9595 & -3.444
Cc1n[nH]c(C2CN(C(=O)COCC(F)(F)F)CCO2)n1 (stereo unspecified) | -14.14 | -8.126
CCn1cc(C2CCN(Cc3ccnc(N(C)C)c3)CC2)cn1 | -20.88 | -3.384
CC1=C(C#N)C(=O)N(C)C(=O)/C1=C\C1=Cc2ccccc2OC1 | -31.66 | -39.9
O=C(NCc1noc(C2CCCO2)n1)c1cn2ccsc2n1 (stereo unspecified) | -13.29 | -23.27
Cc1nn(C)c2c(N3CCN(C(=O)NC4CCCCC4)CC3)ncnc12 | -9.464 | -2.228
CS(=O)(=O)CCN1CCSCC1c1ccc(Cl)cc1 (stereo unspecified) | 17.52 | -12.16 & 4.715
Cc1cccc(-c2nnn3c2COC(CNS(=O)(=O)C2CC2)C3)c1 (stereo unspecified) | -23.89 | -18.08
Cn1cc(-c2cccc(CNC(=O)N3CCC[C@@H]3CO)c2)cn1 | 8.808 | -17.79

8 of the entries, repeated:

{"smiles": "Cc1ccnc(C2CCN(C(=O)c3cnn(C)c3)CC2)n1", "Mtb cholesterol medium": "-26.46 & -0.4976", "Mtb glucose medium": -16.43}
{"smiles": "CS(=O)(=O)CCN1CCSCC1c1ccc(Cl)cc1", "stereo": "stereo unspecified", "Mtb cholesterol medium": 17.52, "Mtb glucose medium": "-12.16 & 4.715"}
{"smiles": "CS(=O)(=O)NCCCN1CCCCC1c1cc2ccccc2[nH]1", "stereo": "stereo unspecified", "Mtb cholesterol medium": 29.2, "Mtb glucose medium": 23.09}
{"smiles": "CCn1cc(C2CCN(Cc3ccnc(N(C)C)c3)CC2)cn1", "Mtb cholesterol medium": -20.88, "Mtb glucose medium": -3.384}
{"smiles": "O=C(Nc1cnc(Oc2ccccc2)nc1)C1CC1", "Mtb cholesterol medium": 32.05, "Mtb glucose medium": "36.47 & 8.642"}
{"smiles": "Cc1noc(CN2CC=C(c3c[nH]c4ncccc34)CC2)n1", "Mtb cholesterol medium": -15.35, "Mtb glucose medium": -16.25}
{"smiles": "Cc1[nH]ncc1C(C)NCc1cccnc1", "stereo": "stereo unspecified", "Mtb cholesterol medium": -4.982, "Mtb glucose medium": 29.45}
{"smiles": "CC(=O)N1CCN(c2cc(CCNC(=O)C(C)C)nc(C3CC3)n2)CC1", "Mtb cholesterol medium": 15.65, "Mtb glucose medium": 17.03}

Data taken from ChEMBL document CHEMBL3988442, “University of Dundee, Small-Polar-MMV Screening Library” (2021).